Source: patent publication US20250171821A1, “HIF-1 ACTIVATORS AND USES THEREOF” (Ramot at Tel-Aviv University Ltd., priority 2022, published 2025)
Results are given in words; binding and its absence hold for the method and conditions named. Some entries that bind do so weakly or less than the wild type.

By UniProt entry, the sequences of proteins in these tests, tags left out. Where a name states a change or a piece, a line headed by the entry shows the natural chain unless it says otherwise.
UniProt Q9GZT9: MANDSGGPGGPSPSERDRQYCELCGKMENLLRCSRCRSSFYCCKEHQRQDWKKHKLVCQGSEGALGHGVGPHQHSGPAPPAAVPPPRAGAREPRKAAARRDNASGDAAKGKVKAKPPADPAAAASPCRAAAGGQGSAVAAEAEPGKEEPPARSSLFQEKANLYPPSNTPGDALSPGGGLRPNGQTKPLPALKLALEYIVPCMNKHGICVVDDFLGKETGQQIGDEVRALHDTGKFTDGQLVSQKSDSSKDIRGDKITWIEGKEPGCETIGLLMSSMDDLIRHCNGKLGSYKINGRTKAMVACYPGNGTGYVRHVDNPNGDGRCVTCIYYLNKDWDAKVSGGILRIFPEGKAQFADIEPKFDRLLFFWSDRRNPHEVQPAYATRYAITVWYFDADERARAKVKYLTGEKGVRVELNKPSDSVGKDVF

Tests used:
[1] = biological target: T1, PHD2/EGLN1 (HIF-prolyl hydroxylase 2) (human, UniProt Q9GZT9 181-426); assay: fluorescence polarization
T1 construct: The protein was expressed as a cleavable GST fusion and the eluate of the GST column was used; also called PHD enzyme; PHD protein

[2] = biological target: T1, PHD2/EGLN1 (HIF-prolyl hydroxylase 2); assay: fluorescence polarization; PHD protein titrated into 200 nM FITC-labeled peptide; normalized bound fraction

DLDLEALAPYIPADDDFQLR (FITC label (position not given)) [HIF peptide (FITC-labeled)]
binding [1]: binds
binding [2]: binds
